Record: PubChem BioAssay AID743121 (NCATS, 2013)
In all, the deposit lists about 26,000 reagents; below is an unselected part. 167 of them (0.63%) were called active. 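Calls are per gene from RSA p-values that are not deposited; an individual active-marked siRNA can sensitise only weakly.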 A number with no mark means an inactive call. The numbers tell different reagents against one gene apart.

- Aim: 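Genes whose silencing strengthens cell killing by camptothecin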 (primary screen)
- System: MDA-MB-231 cells, a human breast cancer line
- Reagents: single siRNA against human genes, 20 nM siRNA (0.8 pmol per well)
- Duration: 120 h (drug added 48 h after transfection, read 72 h later)
- Challenge: camptothecin 20 nM (about EC30) for 72 h; vehicle 0.1% DMSO in parallel plates
- Measured: 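CellTiter-Glo ATP signal, scaled to control siRNA as percent viability; sensitisation given as log2 of untreated divided by camptothecin-treated viability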
- Reading the numbers: log2 vehicle/camptothecin viability: higher = stronger sensitisation to camptothecin; viability with camptothecin and viability without drug: higher = more viable cells
- Call rule: 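Each gene scored by redundant siRNA activity (RSA) over its individual siRNA ratios; a gene is called active at p < 0.001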

gene | siRNA no. | log2 vehicle/camptothecin viability | viability with camptothecin (% of control) | viability without drug (% of control)
SYK (GeneID 6850) | 1 | -0.0409 | 108 | 105
SYK (GeneID 6850) | 2 | 0.0297 | 110 | 112
SYK (GeneID 6850) | 3 | -0.00157 | 86 | 85.9
SYK (GeneID 6850) | 4 | -0.144 | 64.1 | 58
UBXN1 (GeneID 51035) | 1 | -0.108 | 84.9 | 78.8
UBXN1 (GeneID 51035) | 2 | -0.175 | 36.2 | 32
UBXN1 (GeneID 51035) | 3 | 0.438 | 65.1 | 88.2
UBXN1 (GeneID 51035) | 4 | 0.569 | 52.8 | 78.4
RNF126 (GeneID 55658) | 1 | -0.368 | 69.3 | 53.7
RNF126 (GeneID 55658) | 2 | 0.137 | 94.8 | 104
RNF126 (GeneID 55658) | 3 | -0.197 | 110 | 96.3
RNF126 (GeneID 55658) | 4 | -0.00544 | 96 | 95.6
LHB (GeneID 3972) | 1 | -0.527 | 90.1 | 62.5
LHB (GeneID 3972) | 2 | -0.186 | 75.7 | 66.6
KIF21A (GeneID 55605) | 1 | 0.128 | 106 | 116
KIF21A (GeneID 55605) | 2 | -0.112 | 76.5 | 70.8
KIF21A (GeneID 55605) | 3 | -0.464 | 81.2 | 58.9
PRLR (GeneID 5618) | 1 | 0.141 | 96.4 | 106
PRLR (GeneID 5618) | 2 | -0.306 | 96.5 | 78
PRLR (GeneID 5618) | 3 | 0.35 | 73.7 | 94
PRLR (GeneID 5618) | 4 | 0.0598 | 93.7 | 97.7
PEPD (GeneID 5184) | 1 | 0.219 | 42.6 | 49.6
PEPD (GeneID 5184) | 2 | -0.155 | 55.1 | 49.5
PEPD (GeneID 5184) | 3 | -0.293 | 86.3 | 70.5
PEPD (GeneID 5184) | 4 | -0.187 | 85.5 | 75.1
DUSP14 (GeneID 11072) | 1 | -0.184 | 93.7 | 82.5
DUSP14 (GeneID 11072) | 2 | -0.359 | 79.3 | 61.8
DUSP14 (GeneID 11072) | 3 | -0.532 | 85.5 | 59.1
DUSP14 (GeneID 11072) | 4 | 0.0801 | 49 | 51.8
MAPK1 (GeneID 5594) | 1 | -0.2 | 119 | 103
MAPK1 (GeneID 5594) | 2 | -0.559 | 88.3 | 60
MAPK1 (GeneID 5594) | 3 | -0.0308 | 75.1 | 73.5
MAPK1 (GeneID 5594) | 4 | 1.16 | 12.7 | 28.4
PLPP2 (GeneID 8612) | 1 | 0.324 | 31 | 38.8
PLPP2 (GeneID 8612) | 2 | -0.072 | 102 | 97.2
PLPP2 (GeneID 8612) | 3 | -0.176 | 78 | 69
PLPP2 (GeneID 8612) | 4 | -0.259 | 47.4 | 39.7
JPH3 (GeneID 57338) | 1 | -0.234 | 118 | 100
JPH3 (GeneID 57338) | 2 | -0.496 | 111 | 78.8
JPH3 (GeneID 57338) | 3 | -0.422 | 68.6 | 51.2
FBXL14 (GeneID 144699) | 1 | -0.138 | 110 | 99.8
FBXL14 (GeneID 144699) | 2 | -0.078 | 128 | 121
FBXL14 (GeneID 144699) | 3 | -0.161 | 102 | 91.6
FBXL14 (GeneID 144699) | 4 | 0.0958 | 93.1 | 99.5
NEIL1 (GeneID 79661) | 1 | 0.178 | 89 | 101
NEIL1 (GeneID 79661) | 2 | -0.00244 | 86.2 | 86
NEIL1 (GeneID 79661) | 3 | -0.124 | 73.8 | 67.7

3 entries from above, reformatted.
gene,siRNA no.,log2 vehicle/camptothecin viability,viability with camptothecin (% of control),viability without drug (% of control)
MAPK1 (GeneID 5594),3,-0.0308,75.1,73.5
MAPK1 (GeneID 5594),4,1.16,12.7,28.4
PLPP2 (GeneID 8612),1,0.324,31,38.8
